Measured values reported in patent publication US5997871A (priority 1996, dated 1999).
At least one peptide structure holds a part that was inferred or is arguable (an end, a ring closure or a residue). Bridge positions count the residues as written; N and C are the ends. Peptide text beside a SMILES is read from it.

System: KS Y-1 induced tumors
Assay: KS Y-1 tumors induced in immunodeficient mice
Conditions: treatment from one week after tumor cell injection

| Structure (SMILES) | cell death in KS Y-1 tumors (hematoxylin and eosin thin sections) (10 μg per day for 5 days) | cell death in KS Y-1 tumors (hematoxylin and eosin thin sections) (10 μg/ml/daily (6.7 nmoles) for 5 days) |
| --- | --- | --- |
| CC(C)C[C@@H]1NC(=O)[C@@H](N)CSSC[C@@H](C(=O)O)NC(=O)[C@H](C(C)C)NC(=O)[C@H](C(C)C)NC(=O)[C@H](CCC(N)=O)NC(=O)[C@@H]2CCCN2C(=O)[C@H](CC(C)C)NC(=O)[C@H](C)NC(=O)[C@@H]2CCCN2C(=O)[C@H](CC(C)C)NC(=O)[C@H](C(C)C)NC(=O)CNC(=O)[C@H](CCC(N)=O)NC1=O [cyclic 44-57[Cys44]] (H-CLQGVLPALPQVVC-OH; disulfide 1-14) | extensive cell death | – |
| CC(C)C[C@H](NC(=O)[C@H](C)NC(=O)[C@@H]1CCCN1C(=O)[C@H](CC(C)C)NC(=O)[C@@H](NC(=O)CNC(=O)[C@H](CCC(N)=O)NC(=O)[C@@H](N)CC(C)C)C(C)C)C(=O)N1CCC[C@H]1C(=O)N[C@@H](CCC(N)=O)C(=O)N[C@H](C(=O)N[C@H](C(=O)N[C@@H](CS)C(=O)O)C(C)C)C(C)C [β-hCG peptide 45-57] (H-LQGVLPALPQVVC-OH) | – | extensive cell death |
